The experiment concerns the target GFP-MHZ9 (rice). The experiment can be described thus: affinity purification with mass spectrometry; GFP-Trap_A immunoprecipitation from 2-day-old etiolated 35S::GFP-MHZ9 transgenic rice seedlings treated with 10 μL/L ethylene for 8 h (n = 1); wild-type seedlings as negative control; LC-MS/MS.

These are yes or no findings as the source states them, for the method shown. In cells and extracts the contact can be indirect. Here binding means that the protein was enriched with, or labelled near, the bait; the list need not be complete.

B1: OsEIN2 (protein, UniProt Q0D8I9 1-1281)
chain: MDGQQLRSSESPASGGGGVTGGGAPHLFHALGPALLISIGYIDLGKWVAAVEAGSRFGLDLVLLALLFNFMAILCQYLAACIGTVTGRSLAEICHQEYSRPTCIFLGVQAGLSLLTSELTMIFGIALGFNLLFEYDDLITGICFATVVPNLLPYAISHLGKKMVGTLNACIAGFALLCYVLGLLVSQPQIPLTTNVIFPKLSGESAYSLMALLGANVMAHNFYIHSSVVQGQKRSAFAVGALFHDHLFSVLFIFTGIFLVNHVLMNSAAADSTNTLLLTFQDVVELMNQIFVNPMAPTIFLVVLLFSSHIISLTSAIGSQVISQHLFGINLPLSGHHLILKAFAIVPALYCAKVAGAEGIYQLLIICQIIQAMLLPSSVVPLFRVASSRLIMGAHRVSLHLEILTFLAFLLMLFSNIIFMAEMLFGDSGWLNTLKGNTGSPVVFPSTVLITVACVSVAFSLYMAVTPLKSGSHEAELQQEWSVPSQKELLNTTQDREETCAGNVTYEEDQRSDVVPSPRIQPVDCLKSALDYIDSSDTAIESDHDSQHSTAHTSTAPESCHSPSFIPEESKSVVAVDWPEPLEPISNAIVAEESTVESVDSKSTGERDIEVEPALLMDNDKEAPNILESDNKPLGGNNPSCASDDGPPSLTFSRGKGSDAGNGSGSLSRLSGLGRAARRQLAAILDEFWGHLFDYHGKLTQEASSKRFDILLGLDVRTPSSTVRADSQANEIPKSPMVRDNLQGSAFLGSSRDLMSTKNEMSNLDLTYGLQMGNNIGSSAWSQGMQLPSTQLQSSSNSLLDQGARLNSNFSTPSYADNNQFYQPATIHGYQLASYLKQMNANRNPYSSMPLDPQRLPKSSASAVPTYVDSVMHARNQNLLASLGATPSQIAATSRIGTMMAERSYYVPSTLDGNENAGSSAYSKKYHSSPDISALIAASRSALLNESKLGGGTIGSQSYLSRLASERSQYTNSVARPAAPLAFDELSPPKLPGDIFSMQQSPNPSARSLWAKQPFEQLFGVSSAELTKSEFNPAGRSGGMTKDDFSYKESEAKLLQSLRFCISKLLKLEGSGWLFKQNGGSDEDLIDQVAAVEKLLQQGTSDNQLLLGDTQQPPCDKADIQYMRVLPNCGDDCIWRASLVVSFGVWCIRRVLDLSLVESRPELWGKYTYVLNRLQGILDPAFSKPRSALSACACLHRDIRVLNSLRHSSLVATNSIPRQIRGSFTTASVVLEMIKDVETAVSGRKGRSGTAAGDVAFPKGKENLASVLKRYKRRLSSKGQQ
For the molecule B1, the binding entry is “binds”.

The values above are taken from article PMC10403538.
